Here are results for 1 molecule from paper PMC6251626.

This assay addresses wt-Alp14-monomer (S. pombe Alp14 residues 1-510) (S. pombe) (UniProt O94534). Nature of the assay: SEC-MALS; isolated proteins alone, 200 mM KCl; both purified. (In gel filtration, larger molecules generally elute earlier.)

Results are given in words; binding and its absence hold for the method and conditions named.

B1: wt-Alp14-monomer (S. pombe Alp14 residues 1-510) (domain or fragment, UniProt O94534 1-510)
chain: MSQDQEEDYSKLPLESRIVHKVWKVRLSAYEECSKSFSLSADGSDNCFELWNNQSELWKSVLTDSNVAAQEAGTAAFVAYCRFSDPSHLLKAREISVLSISEKCLTSPRAGTRENALEALMLLVEADSAAPVIESIIPSLSARSPKVIASNVAAIASLVEQFGAKVIPSKMIIPHISNLFGHADKNVRKEASRLTVNIYRWTGDPLKDLLFKDLRPVQTKELESLFAELPTEPPKQTRFLKSQQPTSEPNVETQVEEQPALENEESEPEPSDDQFDLVEEVDVLPNVDPNLETLMASSKWKDRKEALDKLLPVLSQPKIKDNDFFNLVAILTKSVSKDANIMVVINAAHCIQAMAKGLRSNFSKYASTSINALLERSKEKKANVIESLSSAMDAVLATSSLDDLAELIASFAGNKNPQIKSSCFSLFSRSFSNMTSLPSKFTVDTCAKACVPGVSDTFEPVRSAAAEALGVLMKLVGERAINQYLSPLDDIRKSKIRSFYETATVKAKAP
For the molecule B1, the binding result is “no binding”.
